Laboratory results: paper PMC7862700
The entries are a selection whose mix differs from that of the whole data set. At the low end of the ranking the order means little.

Tests used:
Assay in all cases: DAPPL (digital affinity profiling via proximity ligation, sequencing)
Conditions in all cases: 10 mM Tris-HCl pH 7.5, 50 mM NaCl, 1 mM DTT, 4% glycerol, room temperature, 30 min; GST-TFs on glutathione beads, 16-mer random dsDNA library, 0.1% …; high values mean tight binding; double strand, one strand shown; scale: fold enrichment (6-mer frequency, TF over GST control)
[1] = biological target: T1, ELK1 (UniProt P19419)
T1 sequence: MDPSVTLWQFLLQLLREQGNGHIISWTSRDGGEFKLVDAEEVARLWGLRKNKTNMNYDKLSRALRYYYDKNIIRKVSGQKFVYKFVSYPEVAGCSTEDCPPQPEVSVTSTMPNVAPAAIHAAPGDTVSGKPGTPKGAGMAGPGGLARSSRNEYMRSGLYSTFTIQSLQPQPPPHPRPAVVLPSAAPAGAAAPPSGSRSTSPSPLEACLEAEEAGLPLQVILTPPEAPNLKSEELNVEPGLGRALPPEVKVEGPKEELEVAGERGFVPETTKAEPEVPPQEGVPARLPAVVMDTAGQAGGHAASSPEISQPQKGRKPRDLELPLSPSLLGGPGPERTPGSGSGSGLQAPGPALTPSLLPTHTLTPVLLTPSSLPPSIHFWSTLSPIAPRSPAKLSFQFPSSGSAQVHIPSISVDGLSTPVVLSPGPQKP

[2] = biological target: T2, ELK3 (UniProt P41970)
T2 sequence: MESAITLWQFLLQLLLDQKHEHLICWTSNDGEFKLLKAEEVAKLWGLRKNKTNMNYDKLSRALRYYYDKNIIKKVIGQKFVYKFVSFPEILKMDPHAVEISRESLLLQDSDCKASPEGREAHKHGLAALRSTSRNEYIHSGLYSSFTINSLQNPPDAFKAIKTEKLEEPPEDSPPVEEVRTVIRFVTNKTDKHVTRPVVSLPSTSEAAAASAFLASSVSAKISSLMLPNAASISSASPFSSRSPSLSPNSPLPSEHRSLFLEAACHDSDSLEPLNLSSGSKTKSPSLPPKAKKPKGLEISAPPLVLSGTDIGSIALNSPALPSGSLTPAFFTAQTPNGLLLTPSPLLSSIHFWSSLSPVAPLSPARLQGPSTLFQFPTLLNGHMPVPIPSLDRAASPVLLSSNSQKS

[3] = biological target: T3, ETS2 (UniProt P15036)
T3 sequence: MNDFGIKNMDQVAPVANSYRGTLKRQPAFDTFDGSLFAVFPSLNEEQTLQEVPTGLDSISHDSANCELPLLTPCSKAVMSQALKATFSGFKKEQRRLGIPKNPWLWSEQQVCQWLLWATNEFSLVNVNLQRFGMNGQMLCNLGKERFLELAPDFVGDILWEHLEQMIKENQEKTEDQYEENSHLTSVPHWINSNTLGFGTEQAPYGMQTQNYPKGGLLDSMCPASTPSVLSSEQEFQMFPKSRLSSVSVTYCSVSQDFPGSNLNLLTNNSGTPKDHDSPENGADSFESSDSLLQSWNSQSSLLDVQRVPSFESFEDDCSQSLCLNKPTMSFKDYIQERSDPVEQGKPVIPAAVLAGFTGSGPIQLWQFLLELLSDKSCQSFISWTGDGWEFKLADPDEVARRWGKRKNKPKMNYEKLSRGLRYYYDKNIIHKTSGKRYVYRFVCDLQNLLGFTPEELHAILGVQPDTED

[4] = biological target: T4, ETV3 (UniProt P41162-2)
T4 sequence: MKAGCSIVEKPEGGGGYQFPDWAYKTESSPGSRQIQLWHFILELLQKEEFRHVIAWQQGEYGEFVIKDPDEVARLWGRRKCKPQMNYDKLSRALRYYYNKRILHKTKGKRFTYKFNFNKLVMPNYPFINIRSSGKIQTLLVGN

| Sequence | binding signal [1] | binding signal [2] | binding signal [3] | binding signal [4] |
| --- | --- | --- | --- | --- |
| AGGTGT | 0.916 | 0.673 | 0.832 | 0.866 |
| GAAAAC | 0.997 | 0.952 | 1.11 | 0.999 |
| CGCCCC | 1.17 | 1.18 | 1.05 | 1.16 |
| GACTCG | 0.85 | 0.941 | 0.834 | 0.842 |
| CTGACC | 1.41 | 1.33 | 1.38 | 1.4 |
| AGATCT | 0.999 | 1.07 | 0.979 | 0.975 |
| CTAGGG | 0.91 | 0.848 | 0.932 | 0.929 |
| TTGAGA | 0.823 | 0.943 | 0.869 | 0.878 |
| CGTCAT | 0.979 | 0.961 | 1.03 | 0.923 |
| AGAGCT | 0.957 | 0.809 | 0.976 | 0.957 |
| CGACAG | 0.925 | 0.89 | 0.992 | 0.883 |
| CACACC | 1.07 | 0.975 | 0.983 | 0.99 |
| GCGTTG | 0.926 | 0.784 | 0.894 | 0.873 |
| GGCTCG | 0.975 | 0.97 | 0.907 | 0.962 |
| GGCTAA | 0.965 | 1.02 | 0.998 | 0.979 |
| TTGGCG | 0.875 | 0.891 | 0.924 | 0.916 |
| ATAGTC | 0.899 | 0.912 | 0.915 | 0.894 |
| GTGCTG | 0.853 | 0.849 | 0.868 | 0.873 |
| TCAGAC | 0.917 | 0.795 | 0.865 | 0.883 |
| TAGTTG | 0.905 | 0.977 | 0.911 | 0.951 |

| Sequence | binding signal [1] | binding signal [2] | binding signal [3] | binding signal [4] |
| --- | --- | --- | --- | --- |
| AGACTC | 0.88 | 0.91 | 0.96 | 0.888 |
| ACTGTC | 0.995 | 0.939 | 0.955 | 0.907 |
| TGGCGC | 0.834 | 0.828 | 0.942 | 0.925 |
| AGCATG | 0.914 | 0.979 | 0.958 | 0.942 |
| GCGACA | 0.949 | 0.911 | 0.996 | 1.01 |
| CGAAGG | 0.914 | 0.962 | 0.979 | 0.889 |
| AAGGCC | 0.909 | 0.982 | 0.96 | 0.961 |
| ATAAGG | 1.01 | 1.19 | 0.995 |  |
| AGAACT | 0.915 | 0.978 | 0.888 | 0.918 |
| TAGAAC | 0.988 | 1.03 | 0.978 | 0.989 |
| GTACTG | 1.02 | 1.08 | 0.993 | 1.11 |
| ATTCGG | 0.881 | 0.879 | 0.875 | 1.02 |
| AAACAG | 0.949 | 0.982 | 0.989 |  |
| GTAAGC | 0.9 | 0.868 | 0.993 | 0.941 |
| ATTGTG | 0.925 | 0.907 | 0.968 | 0.898 |
| TGTGGC | 0.931 | 0.925 | 0.94 | 0.956 |
| TGCAGA | 0.994 | 0.963 | 0.98 | 0.943 |
| CTAGGA | 0.801 | 0.913 | 0.893 | 0.996 |
| TGTCCT | 1.38 | 1.41 | 1.47 |  |

Part of the list above in a different format.
Sequence | binding signal [1] | binding signal [2] | binding signal [3] | binding signal [4]
ATTCGG | 0.881 | 0.879 | 0.875 | 1.02
AAACAG | 0.949 | 0.982 | 0.989 | 
GTAAGC | 0.9 | 0.868 | 0.993 | 0.941
